For part of these data: Negatives hold for the conditions tested. For part of these data: At least one verdict was read from the data and is not stated in words by the source. For part of these data: Weaker means in comparison with the reference protein, sequence or condition of that experiment. For part of these data: For at least one entry, the source does not settle the construct or the ends of the probe. For part of these data: Where cells or extracts were used, other partners may take part. For part of these data: The direction of at least one scale is not stated here.
Assays:
[1] = molecular target: IMP3 full length (Homo sapiens) (UniProt O00425); assay: SELEX; conditions: round 4, purified recombinant protein, residues 1-579, protein details: GST, His6, kept, only the motif is given
[2] = molecular target: IMP3 RRM1-2 (Homo sapiens) (UniProt O00425); assay: SELEX; conditions: round 2; purified recombinant protein; residues 1-163; protein details: GST, His6, kept; only the motif is given; counted as no binding
[3] = molecular target: IMP3 KH3-4 (Homo sapiens) (UniProt O00425); assay: SELEX; conditions: round 4, purified recombinant protein, residues 377-579, protein details: GST, His6, kept, only the motif is given
[4] = molecular target: IMP3 KH1-2 (Homo sapiens) (UniProt O00425); assay: SELEX; conditions: round 4, purified recombinant protein, residues 164-376, protein details: GST, His6, kept, only the motif is given
[5] = molecular target: IMP3 KH1-4 (Homo sapiens) (UniProt O00425); assay: SELEX; conditions: round 4; purified recombinant protein; residues 164-579; protein details: GST, His6, kept; only the motif is given; counted as no binding
[6] = molecular target: IMP3 full length (Homo sapiens) (UniProt O00425); assay: pull-down; conditions: 3'-biotin; recombinant protein; residues 1-579; label: biotin
[7] = molecular target: endogenous IMP3 (HeLa lysate) (Homo sapiens) (UniProt O00425); assay: pull-down; conditions: HeLa lysate; 3'-biotin; protein in an extract; label: biotin
[8] = molecular target: IMP3 dKH3-4 K423D,Q424D,K505D,G506D (Homo sapiens) (UniProt O00425); assay: EMSA; conditions: Hill n 1.8, value assigned from figure text order; EMSA: 10 mM Tris-HCl pH 7.5, 150 mM NaCl, 0.5 mM EDTA, 0.5 mM DTT, 0.1% NP-40, 5% glycerol, tRNA+BSA, 5 nM RNA, 30 min RT then ice; recombinant protein; protein details: GST; label: 32P-UTP
[9] = molecular target: IMP3 dKH1-4 K213D,E214D,K294D,E295D,K423D,Q424D,K505D,G506D (Homo sapiens) (UniProt O00425); assay: EMSA; conditions: Hill n 1.0, value assigned from figure text order; EMSA: 10 mM Tris-HCl pH 7.5, 150 mM NaCl, 0.5 mM EDTA, 0.5 mM DTT, 0.1% NP-40, 5% glycerol, tRNA+BSA, 5 nM RNA, 30 min RT then ice; recombinant protein; protein details: GST; label: 32P-UTP
[10] = molecular target: IMP3 RRM1-2 (Homo sapiens) (UniProt O00425); assay: NMR; conditions: recombinant protein; residues 2-156
[11] = molecular target: IMP3 KHd1-2 K213D,E214D (Homo sapiens) (UniProt O00425); assay: NMR; conditions: no considerable cross-reactivity; recombinant protein; protein details: Trx-His6 removed by TEV, leaves GAMA

Amino acid sequences for entries named in this document (tags omitted). Residues count along the entry.
UniProt O00425, whole entry: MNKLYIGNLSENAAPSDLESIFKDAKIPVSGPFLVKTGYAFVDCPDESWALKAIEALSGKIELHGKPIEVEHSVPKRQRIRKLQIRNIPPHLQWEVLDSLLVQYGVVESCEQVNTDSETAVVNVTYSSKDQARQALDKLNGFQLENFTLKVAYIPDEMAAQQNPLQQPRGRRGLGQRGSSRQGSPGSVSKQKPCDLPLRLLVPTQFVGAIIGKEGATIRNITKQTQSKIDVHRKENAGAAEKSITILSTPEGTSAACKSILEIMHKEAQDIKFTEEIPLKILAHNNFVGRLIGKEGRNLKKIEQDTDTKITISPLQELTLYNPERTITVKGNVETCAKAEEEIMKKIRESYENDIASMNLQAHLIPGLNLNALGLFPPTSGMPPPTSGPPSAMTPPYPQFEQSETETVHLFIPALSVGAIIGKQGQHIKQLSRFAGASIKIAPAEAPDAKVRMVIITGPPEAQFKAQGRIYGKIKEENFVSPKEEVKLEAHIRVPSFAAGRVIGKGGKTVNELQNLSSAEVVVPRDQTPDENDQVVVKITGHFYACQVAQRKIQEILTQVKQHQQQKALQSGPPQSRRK
UniProt O00425, 1-163: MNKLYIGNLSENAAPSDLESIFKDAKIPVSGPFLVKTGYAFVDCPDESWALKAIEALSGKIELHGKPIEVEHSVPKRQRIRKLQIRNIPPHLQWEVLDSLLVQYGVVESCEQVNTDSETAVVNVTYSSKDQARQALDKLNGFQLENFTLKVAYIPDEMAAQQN
UniProt O00425, 377-579: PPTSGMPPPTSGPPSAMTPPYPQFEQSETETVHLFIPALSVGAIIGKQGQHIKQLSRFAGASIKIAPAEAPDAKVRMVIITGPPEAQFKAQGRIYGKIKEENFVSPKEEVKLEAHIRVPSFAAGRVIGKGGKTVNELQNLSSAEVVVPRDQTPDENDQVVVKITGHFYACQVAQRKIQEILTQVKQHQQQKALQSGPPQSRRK
UniProt O00425, 164-376: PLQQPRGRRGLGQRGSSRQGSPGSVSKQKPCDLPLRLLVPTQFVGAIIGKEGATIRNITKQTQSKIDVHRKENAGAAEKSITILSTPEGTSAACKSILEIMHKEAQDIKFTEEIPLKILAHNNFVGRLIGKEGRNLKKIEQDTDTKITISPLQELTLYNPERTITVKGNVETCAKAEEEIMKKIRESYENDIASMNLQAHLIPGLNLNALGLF
UniProt O00425, 164-579: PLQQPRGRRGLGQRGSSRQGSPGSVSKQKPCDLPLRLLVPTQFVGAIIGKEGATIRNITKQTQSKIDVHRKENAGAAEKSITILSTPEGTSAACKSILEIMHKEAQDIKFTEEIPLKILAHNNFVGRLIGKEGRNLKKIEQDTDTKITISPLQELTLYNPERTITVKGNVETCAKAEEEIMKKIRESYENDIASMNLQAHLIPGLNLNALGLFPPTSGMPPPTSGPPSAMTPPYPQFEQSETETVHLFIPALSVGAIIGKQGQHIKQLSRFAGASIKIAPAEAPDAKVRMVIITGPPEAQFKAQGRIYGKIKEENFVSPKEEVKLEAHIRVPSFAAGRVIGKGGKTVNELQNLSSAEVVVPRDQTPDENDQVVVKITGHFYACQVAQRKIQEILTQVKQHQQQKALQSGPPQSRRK
UniProt O00425, whole entry K423D/Q424D/K505D/G506D: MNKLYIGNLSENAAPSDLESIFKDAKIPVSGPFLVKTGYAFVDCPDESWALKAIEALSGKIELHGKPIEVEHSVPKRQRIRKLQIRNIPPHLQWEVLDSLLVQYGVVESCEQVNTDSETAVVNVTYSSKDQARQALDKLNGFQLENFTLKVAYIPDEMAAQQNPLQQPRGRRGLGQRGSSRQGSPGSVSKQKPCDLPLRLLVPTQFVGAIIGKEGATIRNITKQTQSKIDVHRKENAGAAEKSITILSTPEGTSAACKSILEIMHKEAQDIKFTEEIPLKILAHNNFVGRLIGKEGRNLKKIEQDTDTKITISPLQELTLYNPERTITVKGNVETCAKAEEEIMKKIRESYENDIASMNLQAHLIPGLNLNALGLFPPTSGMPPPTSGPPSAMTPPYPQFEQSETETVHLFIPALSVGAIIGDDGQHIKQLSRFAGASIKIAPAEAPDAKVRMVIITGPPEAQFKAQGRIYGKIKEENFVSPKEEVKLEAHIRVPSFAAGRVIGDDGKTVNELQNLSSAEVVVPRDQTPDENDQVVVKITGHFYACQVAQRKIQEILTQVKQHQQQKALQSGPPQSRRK
UniProt O00425, whole entry K213D/E214D/K294D/E295D/K423D/Q424D/K505D/G506D: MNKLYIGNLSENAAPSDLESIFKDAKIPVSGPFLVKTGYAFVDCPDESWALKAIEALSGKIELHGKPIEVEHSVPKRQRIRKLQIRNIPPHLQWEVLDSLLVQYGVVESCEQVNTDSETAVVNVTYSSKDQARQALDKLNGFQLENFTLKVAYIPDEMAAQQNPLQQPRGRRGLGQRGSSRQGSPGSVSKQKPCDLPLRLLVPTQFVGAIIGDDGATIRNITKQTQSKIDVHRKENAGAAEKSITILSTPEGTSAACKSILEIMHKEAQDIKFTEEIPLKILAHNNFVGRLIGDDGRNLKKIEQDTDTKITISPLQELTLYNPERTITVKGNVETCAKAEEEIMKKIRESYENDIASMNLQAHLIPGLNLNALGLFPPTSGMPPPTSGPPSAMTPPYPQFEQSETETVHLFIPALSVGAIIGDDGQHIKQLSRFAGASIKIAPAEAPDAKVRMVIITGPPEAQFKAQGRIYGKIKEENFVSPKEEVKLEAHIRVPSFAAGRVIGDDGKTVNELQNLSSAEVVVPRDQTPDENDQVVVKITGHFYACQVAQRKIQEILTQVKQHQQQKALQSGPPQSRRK
UniProt O00425, 2-156: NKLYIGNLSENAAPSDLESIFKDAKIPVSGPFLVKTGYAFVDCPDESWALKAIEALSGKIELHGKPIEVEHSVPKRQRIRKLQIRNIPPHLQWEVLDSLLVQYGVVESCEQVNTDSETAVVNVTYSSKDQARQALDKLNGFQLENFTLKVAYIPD
UniProt O00425, 192-355 K213D/E214D: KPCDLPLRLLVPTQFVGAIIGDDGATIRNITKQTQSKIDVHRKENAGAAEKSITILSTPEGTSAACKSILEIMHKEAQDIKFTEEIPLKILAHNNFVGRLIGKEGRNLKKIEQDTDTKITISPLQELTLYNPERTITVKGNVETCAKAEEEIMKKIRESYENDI

## AAAAAC [6-mer AAAAAC]
[1]; counted as no binding
  binding signal (SELEX z-score, GST-corrected): -4.1

## AAAAGG [6-mer AAAAGG]
[2]
  binding signal (SELEX z-score, GST-corrected): -1.68

## AACGGA [6-mer AACGGA]
[1]; counted as no binding
  binding signal (SELEX z-score, GST-corrected): -0.78

## AACGGG [6-mer AACGGG]
[1]; counted as no binding
  binding signal (SELEX z-score, GST-corrected): -0.503

## AAGAAU [6-mer AAGAAT]
[2]
  binding signal (SELEX z-score, GST-corrected): -1.36

## AAGACG [6-mer AAGACG]
[1]; counted as no binding
  binding signal (SELEX z-score, GST-corrected): -0.913

## AAGCCA [6-mer AAGCCA]
[2]
  binding signal (SELEX z-score, GST-corrected): -0.6

## AAGGAU [6-mer AAGGAT]
[2]
  binding signal (SELEX z-score, GST-corrected): -0.57

## ACCCAG [6-mer ACCCAG]
[1]
  binding signal (SELEX z-score, GST-corrected): -1.5

## ACCCCG [6-mer ACCCCG]
[1]; counted as no binding
  binding signal (SELEX z-score, GST-corrected): -0.843

## ACCCCU [6-mer ACCCCT]
[2]
  binding signal (SELEX z-score, GST-corrected): -0.501

## ACCCGU [6-mer ACCCGT]
[3]; counted as no binding
  binding signal (SELEX z-score, GST-corrected): -1.33

## ACCUAA [6-mer ACCTAA]
[4]
  binding signal (SELEX z-score, GST-corrected): -1.97
[3]
  binding signal (SELEX z-score, GST-corrected): -2.12

## ACCUGC [6-mer ACCTGC]
[1]; counted as no binding
  binding signal (SELEX z-score, GST-corrected): -1.28

## ACGCCU [6-mer ACGCCT]
[1]; counted as no binding
  binding signal (SELEX z-score, GST-corrected): -0.624

## ACUCGC [6-mer ACTCGC]
[4]; counted as no binding
  binding signal (SELEX z-score, GST-corrected): -0.633

## ACUGAG [6-mer ACTGAG]
[4]; counted as no binding
  binding signal (SELEX z-score, GST-corrected): -1.19

## ACUGCG [6-mer ACTGCG]
[4]; counted as no binding
  binding signal (SELEX z-score, GST-corrected): -0.544

## ACUUGC [6-mer ACTTGC]
[3]
  binding signal (SELEX z-score, GST-corrected): -0.501

## AGACCG [6-mer AGACCG]
[5]
  binding signal (SELEX z-score, GST-corrected): -1.12

## AGCCAA [6-mer AGCCAA]
[5]
  binding signal (SELEX z-score, GST-corrected): -1.46

## AGGAGC [6-mer AGGAGC]
[5]
  binding signal (SELEX z-score, GST-corrected): -0.719

## AGUAUC [6-mer AGTATC]
[5]
  binding signal (SELEX z-score, GST-corrected): -0.555

## AUAAGA [6-mer ATAAGA]
[2]
  binding signal (SELEX z-score, GST-corrected): -0.916

## AUACCG [6-mer ATACCG]
[2]
  binding signal (SELEX z-score, GST-corrected): -0.639

## AUGACG [6-mer ATGACG]
[2]
  binding signal (SELEX z-score, GST-corrected): -0.691

## AUUAAA [6-mer ATTAAA]
[2]
  binding signal (SELEX z-score, GST-corrected): -0.759

## AUUGAC [6-mer ATTGAC]
[2]
  binding signal (SELEX z-score, GST-corrected): -0.535

## CAAGCG [6-mer CAAGCG]
[5]
  binding signal (SELEX z-score, GST-corrected): -2.09

## CAGCCC [6-mer CAGCCC]
[5]
  binding signal (SELEX z-score, GST-corrected): -0.504

## CAGCGC [6-mer CAGCGC]
[5]
  binding signal (SELEX z-score, GST-corrected): -1.26

## CCAACU [6-mer CCAACT]
[3]; counted as no binding
  binding signal (SELEX z-score, GST-corrected): -1.2

## CCCAAU [6-mer CCCAAT]
[3]; counted as no binding
  binding signal (SELEX z-score, GST-corrected): -1.74

## CCCACC [6-mer CCCACC]
[4]; counted as no binding
  binding signal (SELEX z-score, GST-corrected): -1.37

## CCCAGG [6-mer CCCAGG]
[1]; counted as no binding
  binding signal (SELEX z-score, GST-corrected): -0.718

## CCCUGG [6-mer CCCTGG]
[5]
  binding signal (SELEX z-score, GST-corrected): -0.794

## CCGAAU [6-mer CCGAAT]
[4]; counted as no binding
  binding signal (SELEX z-score, GST-corrected): -0.69

## CCGAUC [6-mer CCGATC]
[4]; counted as no binding
  binding signal (SELEX z-score, GST-corrected): -1.05

## CGACCG [6-mer CGACCG]
[5]
  binding signal (SELEX z-score, GST-corrected): -1.73

## CGACUG [6-mer CGACTG]
[3]; counted as no binding
  binding signal (SELEX z-score, GST-corrected): -0.985

## CGACUU [6-mer CGACTT]
[1]; counted as no binding
  binding signal (SELEX z-score, GST-corrected): -0.545

## CGUAGC [6-mer CGTAGC]
[1]; counted as no binding
  binding signal (SELEX z-score, GST-corrected): -0.989

## CGUCAC [6-mer CGTCAC]
[3]; counted as no binding
  binding signal (SELEX z-score, GST-corrected): -0.905

## CGUUUC [6-mer CGTTTC]
[5]
  binding signal (SELEX z-score, GST-corrected): -0.606

## CUACCU [6-mer CTACCT]
[4]; counted as no binding
  binding signal (SELEX z-score, GST-corrected): -0.824

## CUACGA [6-mer CTACGA]
[5]
  binding signal (SELEX z-score, GST-corrected): -0.854

## CUCCAA [6-mer CTCCAA]
[4]; counted as no binding
  binding signal (SELEX z-score, GST-corrected): -0.751

## CUCCCC [6-mer CTCCCC]
[1]; counted as no binding
  binding signal (SELEX z-score, GST-corrected): -0.661

## CUCUUG [6-mer CTCTTG]
[5]
  binding signal (SELEX z-score, GST-corrected): -0.659

## CUGAGC [6-mer CTGAGC]
[1]; counted as no binding
  binding signal (SELEX z-score, GST-corrected): -1.87

## GAAAAA [6-mer GAAAAA]
[2]
  binding signal (SELEX z-score, GST-corrected): -3.53

## GAACCC [6-mer GAACCC]
[4]; counted as no binding
  binding signal (SELEX z-score, GST-corrected): -1.64

## GACCUU [6-mer GACCTT]
[3]; counted as no binding
  binding signal (SELEX z-score, GST-corrected): -0.679

## GACUCC [6-mer GACTCC]
[4]; counted as no binding
  binding signal (SELEX z-score, GST-corrected): -0.591

## GAGAGC [6-mer GAGAGC]
[3]; counted as no binding
  binding signal (SELEX z-score, GST-corrected): -1.08

## GAGCGG [6-mer GAGCGG]
[3]; counted as no binding
  binding signal (SELEX z-score, GST-corrected): -0.557

## GAUAAC [6-mer GATAAC]
[2]
  binding signal (SELEX z-score, GST-corrected): -1

## GCCCAU [6-mer GCCCAT]
[3]; counted as no binding
  binding signal (SELEX z-score, GST-corrected): -0.816

## GCGAAG [6-mer GCGAAG]
[3]; counted as no binding
  binding signal (SELEX z-score, GST-corrected): -0.762

## GCGAGC [6-mer GCGAGC]
[3]; counted as no binding
  binding signal (SELEX z-score, GST-corrected): -1.49

## GGAACC [6-mer GGAACC]
[2]
  binding signal (SELEX z-score, GST-corrected): -0.833

## GGAGAA [6-mer GGAGAA]
[2]
  binding signal (SELEX z-score, GST-corrected): -1.08

## GGGAAA [6-mer GGGAAA]
[2]
  binding signal (SELEX z-score, GST-corrected): -1.19

## GGGAGGGAGGAAGGCAAUUUUGGAGGAACUACAGAACACAUAUCGCAGCUAAAACACAAUUUUGGAGGAACUACAGAAUGCGGCUAUCCACACACAAAGGG [101-mer, 3'-biotin]
[6]
  binding result: binds
[7]
  binding result: binds

## GGGAGGGAGGAAGGCAAUUUUGGAGGAACUACAGAACACAUAUCGCAGCUAAAACACAAUUUUGGAGGAACUACAGAAUGCGGCUAUCCACACACAAAGGG [101-mer]
[8]
  Kd: 33.4 nM
[9]
  Kd: 118 nM

## GUGUGUGUGU [(GU)5]
[10]
  binding result: binds more weakly

## UAAAAA [6-mer TAAAAA]
[4]; counted as no binding
  binding signal (SELEX z-score, GST-corrected): -0.501

## UAGAGC [6-mer TAGAGC]
[1]; counted as no binding
  binding signal (SELEX z-score, GST-corrected): -1.08

## UCGGCAC [GGC (CGG) 7-mer]
[11]
  binding result: no binding

## UGAACC [6-mer TGAACC]
[4]; counted as no binding
  binding signal (SELEX z-score, GST-corrected): -0.889

## UGAGCG [6-mer TGAGCG]
[4]; counted as no binding
  binding signal (SELEX z-score, GST-corrected): -5.22
[3]; counted as no binding
  binding signal (SELEX z-score, GST-corrected): -4.9
[5]
  binding signal (SELEX z-score, GST-corrected): -5.45

## UGCACC [6-mer TGCACC]
[3]; counted as no binding
  binding signal (SELEX z-score, GST-corrected): -0.615

## UGCCCU [6-mer TGCCCT]
[5]
  binding signal (SELEX z-score, GST-corrected): -1.01

## UUAAAG [6-mer TTAAAG]
[1]; counted as no binding
  binding signal (SELEX z-score, GST-corrected): -0.585

## UUGACG [6-mer TTGACG]
[4]; counted as no binding
  binding signal (SELEX z-score, GST-corrected): -0.96
[5]
  binding signal (SELEX z-score, GST-corrected): -0.923

Reference: publication PMC6531468
